According to US7888341B2, “Combination of glivec (STI571) with a cyclin-dependent kinase inhibitor, especially flavopiridol, in the treatment of cancer” (The United States of America as represented by the …, priority 2002, dated 2011):
Counter-ions that a name gives are not always drawn.

Key:
parental K562S cells = test: cells; conditions: Homo sapiens
K562R cells = test: cells; conditions: Homo sapiens, K-562R

IC50 (K562R cells): ~3000 nM
SMILES: Cc1ccc(NC(=O)c2ccc(CN3CCN(C)CC3)cc2)cc1Nc1nccc(-c2cccnc2)n1 [SALT I, 4-[(4-methyl-1-piperazin-1-ylmethyl)-N-[4-methyl-3-[[4-(3-pyridinyl)-2-pyrimidinyl]amino]phenyl]benzamide methanesulfonate]
IC50 (parental K562S cells): 400 nM
